In this experiment the target is Gap junction protein α1 (GJA1), endogenous in human RPE1 cells (human (endogenous in RPE1)) (UniProt P17302). Kind of experiment: affinity purification with mass spectrometry; human RPE1 lysate (TBS, 1% Triton X-100, 10% glycerol) incubated overnight at 4°C with anti-GJA1 antibody- or rabbit serum-conjugated Protein G Mag Sepharose beads; low-pH elution; Orbitrap mass spectrometry.

The chains behind the UniProt entries cited, without tags or fusion partners.
UniProt P17302: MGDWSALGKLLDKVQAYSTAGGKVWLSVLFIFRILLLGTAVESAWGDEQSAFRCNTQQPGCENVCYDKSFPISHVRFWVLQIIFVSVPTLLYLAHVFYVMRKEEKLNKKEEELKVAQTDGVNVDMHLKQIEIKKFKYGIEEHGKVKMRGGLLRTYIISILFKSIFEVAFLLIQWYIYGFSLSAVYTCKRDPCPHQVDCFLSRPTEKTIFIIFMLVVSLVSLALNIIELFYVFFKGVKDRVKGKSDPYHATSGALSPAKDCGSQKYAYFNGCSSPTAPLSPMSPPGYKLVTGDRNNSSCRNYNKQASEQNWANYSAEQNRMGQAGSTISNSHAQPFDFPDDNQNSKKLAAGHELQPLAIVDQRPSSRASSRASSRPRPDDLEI
UniProt P61006: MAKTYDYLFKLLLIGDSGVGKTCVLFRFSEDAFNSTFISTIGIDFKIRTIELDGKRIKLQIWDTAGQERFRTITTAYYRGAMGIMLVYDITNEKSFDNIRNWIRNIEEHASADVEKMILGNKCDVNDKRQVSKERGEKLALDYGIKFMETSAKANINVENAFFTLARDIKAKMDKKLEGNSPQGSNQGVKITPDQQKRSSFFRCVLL
UniProt P62491: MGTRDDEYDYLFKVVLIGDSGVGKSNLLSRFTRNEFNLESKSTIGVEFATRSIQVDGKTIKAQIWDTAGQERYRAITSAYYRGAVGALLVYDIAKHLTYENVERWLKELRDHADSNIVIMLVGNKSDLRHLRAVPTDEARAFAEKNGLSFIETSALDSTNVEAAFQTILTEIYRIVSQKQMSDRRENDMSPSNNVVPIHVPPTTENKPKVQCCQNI

No constants are given. Whether binding was seen depends on the method and setting. Binding seen in cells or lysates may run through a third protein. A yes stands for co-enrichment or nearness to the bait. Other partners may have been found.

We go through two substances from article PMC9448326.

With “Rab8a, endogenous in human RPE1 cells (hit of the GJA1 IP-MS) (from UniProt P61006 1-207)”, the binding entry is reported as “binds”. As to “Rab11a, endogenous in human RPE1 cells (hit of the GJA1 IP-MS) (from UniProt P62491 1-216)”, the binding entry is reported as “binds”.
